The list shows a part of the results.

We go through 19 molecules from PMC10163288.

B1: il2ra_site1_2b5i_sap_10_mot_HHH_b1_05489_000000003_0001_1_19_H_._HHH_b2_06282_af2_0001_0000500016_0000001_0_0001_af2pred_dldesign_0_af2pred (protein)
chain: SSSSSSSSNWKQLLLRADAAYKAGDVEELERLLREAEAAGYTKVARIIREAIEALLESSSSSSSS
B2: il2ra_site2_3nfp_normal_mot_HHH_b1_02962_000000041_0001_43_56_H_._HHH_b2_04661_af2_0001_0000300012_0000001_0 (protein)
chain: SSSSDEERLRKLLKELEELAEEGDEEEFRELVRELSQLIFELGDSEAFFILAELLFRFEQKSSSS
B3: il2ra_site1_2b5i_sap_17_mot_HHH_b2_03242_af2_000000120_0001_1_19_H_._8d84ef60cc1e3adad24f3638b402ac36_0001_1_af2_0001_0000300012_0000001_0_0001 (protein)
chain: SSSSDIEERIDELFREASRLWREGNPEEARELLEEALELAEEANDPNTARDIERFLRLKGSSSSS
B4: il2ra_site1_1z92_sap_14_mot_22aa8d8ad8dce7f663ea8fa348a52261_0001_000000005_0001_37_51_H_._HEEHE_1847_af2_0002_0000300017_0000001_0_0001_af2pred_dldesign_0_af2p … (protein)
chain: SLEELLERLAKLLGVDPSTVKSMLDALTKLTGDRRKAVRNFLTFLKKSGLLTPEVEALLRRIEEE
B5: il2ra_site1_2b5i_sap_20_mot_24158596531fe56b9a92a73954708cce_0001_af2_000000247_0001_36_50_H_._a237db91e5dae9a764afea8a79d812a9_0001_0001_0000200022_0000001_0_0 … (protein)
chain: SEEELLEELAKLAGVPPEVIERAVEVAAKQLEDPPEEALEALRKDLEKLGDPRHVKLAVELLARK
B6: il2ra_site2_3nfp_normal_mot_HHH_b1_06797_000000164_0001_24_40_H_._HHH_b1_00354_0001_0000100007_0000001_0 (protein)
chain: SSSSSSKAEEYIRAVIELAKRIEDPEVARRSLRLAIELAHLIRNEELLEELEELLEQLESSSSSS
B7: il2ra_site1_3nfp_normal_mot_1cd86ef9f1587ae5d14d35bbbd8e7f1d_0001_1_000000087_0001_34_49_H_._HHH_b1_04651_0001_0000700037_0000001_0_af2pred_0001_af2pred (protein)
chain: SSSSDIEEEVEELEEKARQLIEKGDSREFDKVLRRLQELARELDDPRIKEIAEELLRLAHSSSSS
B8: il2ra_site2_2erj_sap_10_mot_HHH_b1_04875_000000046_0001_21_38_H_._HHH_b2_00017_0001_0000400004_0000001_0_0001 (protein)
chain: SSSSDVEEEVEELLEQAEKAWREGDLHAVYRLAVEALHLASKNQDPELQRLVAEVFEKLQSSSSS
B9: il2ra_site2_2erj_sap_24_mot_ca9fcc9ace360711d783d1260e4fbff1_0001_1_af2_000000007_0001_15_32_H_._HHH_b1_06826_0001_0000200029_0000001_0_0001 (protein)
chain: DENAEELLKEALKLAPPEEVLRSRLEYLERFLGDPERAEEILKEVVKEVLNVPPEEARRLIEEAR
B10: il2ra_site1_1z92_normal_mot_HHH_b2_05038_af2_000000006_0001_39_52_H_._c788f694b6024b8d85290983deed1e3f_0001_0001_0000100008_0000001_0 (protein)
chain: SLEEKLKELLEELGVPPELIRILLQYIEFARASGLPPEEVLERVRELVERAGSEELSQALELLKK
B11: il2ra_site2_2erj_normal_mot_d90d487aea70c45ec8d535bcd4a5bcdf_0001_1_000000234_0001_37_51_H_._f36577d69a6146de1eed06bfb95d352c_0001_1_0001_0000300032_0000001_0 (protein)
chain: DIEEFIKEALRLAAEQGTLEEDVRLRLRYLEIFLGDPEEALRRLRELLEELGDPDAEKVLEELER
B12: il2ra_site2_3nfp_sap_19_mot_ems_3hC_936_0002_af2_000000049_0001_43_60_H_._76e6e8f7232a9e65eeaab5ff8ecb4c96_0001_0001_0000100003_0000001_0_0001 (protein)
chain: SSSSSKAEEYLRIALELAKEAREDGDPESARRILHIALAMAESQRDEEIEKEVERLLEEVSSSSS
B13: il2ra_site1_1z92_sap_8_mot_HHH_b2_05172_af2_000000284_0001_1_18_H_._HHH_b1_05687_af2_0001_0000100001_0000001_0_0001_af2pred_0001_af2pred (protein)
chain: SLEEELKELAEQLGIPPEEVELILEIAEKDSGDPRLARRFLAVIILAAVKKNDPRYVESLRDAAS
B14: il2ra_site1_1z92_sap_17_mot_HHH_b1_07624_af2_000000183_0001_1_21_H_._HHH_b2_00527_0001_0000100009_0000001_0_0001 (protein)
chain: SSSSNFAEFAREMARALFKLIEISGNPRARERLEMLLRDLEMLGNEEVIEEVEELIEQLRNSSSS
B15: il2ra_site2_2erj_sap_24_mot_HHH_b2_04375_af2_000000283_0001_22_38_H_._HHH_b2_05413_af2_0001_0000200004_0000001_0_0001 (protein)
chain: SSSSSEAYEEAARASLRALELFKRGNPEEAREVLEEALRLAEELNDEAAKRYLEFLEKDLDSSSS
B16: il2ra_site1_1z92_normal_mot_22370d59370c406a0c205a431f537cfa_0001_000000027_0001_1_14_H_._HHH_b1_00743_af2_0001_0000300005_0000001_0_af2pred_dldesign_0_af2pred (protein)
chain: SSSDDEEILRTMKEISRLYAAGRPAEAAAAAAALRARLTAAGETGAVADLDKYVAFVRARASSSS
B17: il2ra_site1_3nfp_sap_16_mot_22370d59370c406a0c205a431f537cfa_0001_af2_000000271_0001_52_65_H_._306e237eb68499aa2c78cb84ccc46c3c_0001_0001_0000100011_0000001_1_0 … (protein)
chain: SSSSREAELAEFAIRVVAKLQLELGLSEEQAQELLELAERLVRQGYSEEEIEEILEKLARELSSS
B18: il2ra_site2_3nfp_sap_11_mot_HHH_b2_00746_000000285_0001_20_36_H_._HHH_b1_04862_0001_0000300041_0000001_0_0001 (protein)
chain: SSSDREERIEELFEEVRELLERGDPTEATQLLLEMAELASKLDDPELARLVLELYKLARELYSSS
B19: il2ra_site2_3nfp_sap_17_mot_HHH_b1_05627_af2_000000038_0001_43_56_H_._HHH_b2_05199_af2_0001_0000300015_0000001_0_0001 (protein)
chain: SSSSDREEVRKLLEELEEAVERNDDELFRELLRRIAQLIFEIGDFELFAILAELRAKFVQSSSSS

This assay deals with il2ra, P01589. The experiment in a line: yeast display titration.
Regarding B1, the “apparent Kd” value was “inactive: no binding seen”.
For B2, the “apparent Kd” value is “inactive: no binding seen”.
Regarding B3, the “apparent Kd” value is “inactive: no binding seen”.
As for B4, the “apparent Kd” value was “inactive: no binding seen”.
As for B5, the “apparent Kd” value is “inactive: no binding seen”.
For B6, the “apparent Kd” value is “inactive: no binding seen”.
Consider B7, for which the “apparent Kd” value was “inactive: no binding seen”.
The same measure for B8: “inactive: no binding seen”; for B9: “inactive: no binding seen”; for B10: “inactive: no binding seen”.
Regarding B11, the “apparent Kd” value was “inactive: no binding seen”.
Take B12: the “apparent Kd” value was “inactive: no binding seen”.
For the molecule B13, the “apparent Kd” value is “inactive: no binding seen”.
On to B14, for which the “apparent Kd” value was “inactive: no binding seen”.
As to B15, the “apparent Kd” value is “inactive: no binding seen”.
As for B16, the “apparent Kd” value is “inactive: no binding seen”.
Take B17: the “apparent Kd” value was “inactive: no binding seen”.
Turning to B18, the “apparent Kd” value is “inactive: no binding seen”.
Consider B19, for which the “apparent Kd” value is “inactive: no binding seen”.
